Measured values from PubChem BioAssay AID504648 (National Center for Advancing Translational Sciences (NCATS), 2011).
Screen size: about 390,000 compounds; about 610 (0.16%) were called active. This list was built around the results that the source calls inconclusive (neither active nor inactive); the mix of calls is not that of the screen. The call rests on the fitted dose curve; in most records, active means well fitted inhibition curve with a large enough effect; inconclusive means small, poorly fitted or top-dose-only effect, or effect the other way, or another doubt; inactive means no such curve, though single readings can be large or run the other way. Potencies of inconclusive entries are doubtful fits and often do not repeat.

Test: Nrf2 qHTS screen for inhibitors: counterscreen for cytotoxicity
Details: A549 ARE-Fluc cells, CellTiter-Fluor viability, 18-24 h; activity change, negative = cytotoxicity: at 46 µM (top of the series)
Outline: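 Cytotoxicity counterscreen: CellTiter-Fluor fluorescence was measured in A549 ARE_Fluc cells after 18-24 h of compound exposure in a concentration series. The subsequent BugLite luminescent read reports ARE-luciferase activity.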
On the % scale 0 is the no-effect control and ±100 the full control effect; potency means the concentration at half of the fitted maximal effect.

| SMILES | Potency | activity change, negative = cytotoxicity |
| --- | --- | --- |
| O=[N+]([O-])c1ccc(N2CCN(c3ccc([N+](=O)[O-])cc3CO)CC2)c(CO)c1 | inconclusive: 25.9 µM [falling, partial curve, poor fit] |  |
| O=C(Cn1nc(-c2ccccc2)c2c(c1=O)CCCC2)Nc1ccc(F)c(Cl)c1 | inconclusive: 29.1 µM [falling, single point] |  |
| COc1ccc(N2CCN(C(=O)c3cc4c(C)nc5ccccc5c4o3)CC2)cc1 |  | inactive: -17.1% |
| Cn1c(=O)c2c(ncn2CCCc2ccccc2)n(C)c1=O | inconclusive: 16.4 µM [falling, partial curve, poor fit] |  |
| CN(C(=O)c1cccc(NC(=O)Cc2ccc(NC(=O)C3CCCN(C(=O)CCc4ccccc4)C3)cc2)c1)C1CCCC1 (centres undefined) | inconclusive: 25.9 µM [falling, partial curve, poor fit] |  |
| Cc1ccccc1NS(=O)(=O)c1ccc2[nH]cc(C(=O)NC3CCCCC3)c(=O)c2c1 |  | inactive: -8.24% |
| CC1CCCCC1Nc1nc2ccc(Cl)cc2n2cnnc12 (centres undefined) | inconclusive: 25.9 µM [falling, partial curve, poor fit] |  |
| C(=N\Nc1nc2ccccc2[nH]1)/c1cccc2cccnc12 | inconclusive: 18.4 µM [falling, partial curve, poor fit] |  |
| COc1ccc(CC(=O)Nc2nc(-c3cccnc3)cs2)cc1 | inconclusive: 29.1 µM [activator, single point] |  |
| O=C(O)c1ccc(N/N=C/c2ccc(-c3cccc(Cl)c3)o2)cc1 | inconclusive: 20.6 µM [falling, partial curve, poor fit] |  |
| COc1cccc(CNC(=O)CCCn2nc(C)c3sc4ccccc4c3c2=O)c1 |  | inactive: -0.706% |
| CN1N=C(C(=O)N2CCN(c3ccc([N+](=O)[O-])cc3)CC2)CCC1=O | inconclusive: 18.4 µM [falling, partial curve, poor fit] |  |
| COc1ccc(C(=O)OC(C)C(=O)NCC2CCCCC2)cc1S(=O)(=O)N1CCOCC1 (centres undefined) |  | inactive: -5.22% |
| CCCCn1c(=NC(=O)c2cccnc2)c(C#N)cc2c(=O)n3cccc(C)c3nc21 | inconclusive: 16.4 µM [activator, partial curve, poor fit] |  |
| CCOC(=O)c1c(C)oc2nc(C)nc(N3CCN(c4cc(Cl)ccc4C)CC3)c12 |  | inactive: 3.19% |
| CCOC(=O)/C(=N/Nc1ccc(Cl)cc1)S(=O)(=O)c1ccccc1 | inconclusive: 29.1 µM [falling, single point] |  |
| N=c1n(CCN2CCCCC2)c2ccccc2n1CC(O)COc1ccccc1 (centres undefined) | inconclusive: 18.4 µM [falling, partial curve] |  |
| Cc1cc(C)cc(N(C(=O)c2nsc(Cl)c2Cl)C(C(=O)NC2CCCC2)c2ccc(O)cc2)c1 (centres undefined) | inconclusive: 29.1 µM [falling, single point] |  |
| Fc1ccccc1COc1ccccc1CNCc1ccncc1 | inconclusive: 6.51 µM [activator, single point] |  |
| COc1cc(OC)c(NC(=O)Cn2c(=O)cc(C)c3c(C)nn(-c4ccc(C)cc4)c32)cc1Cl | inconclusive: 23.1 µM [activator, partial curve, poor fit] |  |
| CSc1ccc(-c2nc3c(C)cccn3c2Nc2ccc3c(c2)OCCO3)cc1 |  | inactive: 1.19% |
| CCN1CCN(CCNC(=O)C2CCCN(Cc3nc(-c4cccc(Cl)c4)oc3C)C2)CC1 (centres undefined) | inconclusive: 6.51 µM [falling, partial curve] |  |

| SMILES | Potency | activity change, negative = cytotoxicity |
| --- | --- | --- |
| Cc1[nH]n(C(N)=S)c(=O)c1N=Nc1cccc(C(F)(F)F)c1 | inconclusive: 6.51 µM [activator, single point] |  |
| Cc1nonc1C(=O)N/N=C/c1ccc(O)c(O)c1 |  | inactive: -13.5% |
| O=C1c2ccccc2-c2cccc(NS(=O)(=O)c3ccc(C(F)(F)F)cc3)c21 | inconclusive: 16.4 µM [falling, single point] |  |
| O=C(CSCc1ccccc1Cl)N1CCN(c2ccccn2)CC1 |  | inactive: 0.75% |
| CCOC(=O)c1nnn(CC(=O)Nc2cc(C)cc(C)c2)c1C(=O)OCC |  | inactive: 5.45% |
| COc1ccccc1CNC(=O)c1cc2cccc3c2n1CC(C)S3 (centres undefined) | inconclusive: 0.82 µM [activator, partial curve, poor fit] |  |
| COc1ccc(CCNS(=O)(=O)c2ccc(N3CCCCS3(=O)=O)cc2)cc1OC |  | inactive: -2.91% |
| Cc1ccc(Cn2c(CCCNC(=O)c3ccco3)nc3ccccc32)cc1 |  | inactive: 3.05% |
| COc1ccc(Nc2nc(-c3cccs3)nc3ccccc23)cc1S(=O)(=O)N1CCOCC1 | inconclusive: 13 µM [falling, partial curve] |  |
| CCOC(=O)c1c(N)n(C2CC(C)(C)NC(C)(C)C2)c2nc3ccccc3nc12 | inconclusive: 29.1 µM [activator, partial curve, poor fit] |  |
| Cc1cccn2c(=O)c3cc(C(=O)NC(C)C)c(=N)n(Cc4ccncc4)c3nc12 | inconclusive: 14.6 µM [activator, partial curve, poor fit] |  |
| COc1ccc(OC)c(NC(=S)NCCC(c2ccccc2)c2ccccc2)c1 |  | inactive: -6.54% |
| C#CCOCCOCCOCCNc1nc(N2CCN(C(=O)CCCCCCCCCCNC(=O)Cn3cc(C[C@@H](C)O)nn3)CC2)nc(N2CCN(C(=O)CCCCCCCCCCNC(=O)[C@@H]([C@H](C)O)n3cc(C)nn3)CC2)n1 | inconclusive: 18.4 µM [falling, single point] |  |
| CSc1nc(N)nc(SCC(=O)Nc2cccc(F)c2)c1C#N |  | inactive: 8.5% |
| c1cnc2nc3c4ccccc4c4ccccc4c3nc2c1 | inconclusive: 18.4 µM [falling, single point] |  |
| Cc1oc(-c2ccc(Cl)cc2)nc1CN1CCCC(C(=O)NC2CC2)C1 (centres undefined) | inconclusive: 3.26 µM [activator, partial curve, poor fit] |  |
| S=C(NCCc1ccncc1)Nc1ccccc1 |  | inactive: 2.18% |
| CC1=CC2=NC(=O)/C(=C\c3cccn3CCOc3ccc(C)c(C)c3)C(=N)N2O1 | inconclusive: 32.6 µM [falling, partial curve, poor fit] |  |
| Fc1ccc(-n2nnnc2-c2cnc(-c3cccs3)nc2C(F)(F)F)cc1 | inconclusive: 14.6 µM [falling, partial curve] |  |
| CC1(C)C[C@H](O)[C@]2(CO)[C@H](O)C[C@]3(C)C(=CCC4[C@@]5(C)CC[C@H](O)C(C)(C)C5CC[C@]43C)[C@@H]2C1 (some centres undefined) | inconclusive: 29.1 µM [falling, single point] |  |
| CC(C)(C)C1CCc2c(sc(NC(=O)c3cccs3)c2C(=O)N2CCCCC2)C1 (centres undefined) | inconclusive: 16.4 µM [falling, partial curve, poor fit] |  |
| CCCn1c(=N)c(C(=O)NCc2cccnc2)cc2c(=O)n3ccccc3nc21 | inconclusive: 8.2 µM [activator, partial curve, poor fit] |  |

| SMILES | Potency | activity change, negative = cytotoxicity |
| --- | --- | --- |
| CCNC(=O)/C(C#N)=C/c1c(N2CCCCCC2)nc2c(C)cccn2c1=O |  | inactive: -29.7% |
| Cc1cc(C(=O)COC(=O)c2ccccc2O)c(C)n1Cc1cccs1 | inconclusive: 20.6 µM [falling, single point] |  |
| CCOC(=O)c1sc(NC(=O)c2ccc(S(=O)(=O)N3CCCCC3)cc2)nc1-c1ccccc1 |  | inactive: -5.12% |
| CCOc1ccccc1NC(=O)NC1CCN(CC(=O)Nc2ccc3c(c2)OCCO3)CC1 | inconclusive: 4.11 µM [activator, single point] |  |
| CCOC(=O)c1ccc(-c2nnc(-c3ccc(Cl)cc3Cl)o2)cc1 |  | inactive: -0.245% |
| Cc1ccc(/C=N/Nc2nnc(Cl)c3ccccc23)cc1 |  | inactive: 6.78% |
| O=C(COC(=O)CCN1C(=O)/C(=C\C=C\c2ccccc2)SC1=S)Nc1cc(F)ccc1F | inconclusive: 23.1 µM [falling, partial curve, poor fit] |  |
| COc1ccc(NC(=O)C2CCN(C(=O)N3CCOc4ccccc43)CC2)cc1 | inconclusive: 18.4 µM [falling, single point] |  |
| O=C(Nc1ccc(Cl)c(C(F)(F)F)c1)c1ccc2c(c1)CCN2S(=O)(=O)c1ccccc1 |  | inactive: -18.8% |
| COc1ccc(C(C(=O)NC2CCCCC2)N(Cc2cccs2)C(=O)Cc2c[nH]c3ccccc23)cc1OC (centres undefined) | inconclusive: 29.1 µM [falling, single point] |  |
| COc1cc(SC)ccc1C(=O)NCCOc1ccc(F)cc1 |  | inactive: -2.3% |
| CCC(C)(C)n1nnnc1C(c1cc2ccc(OC)cc2[nH]c1=O)N1CCN(C2CCCCC2)CC1 (centres undefined) | inconclusive: 16.4 µM [falling, partial curve, poor fit] |  |
| CCC1CN(C(=O)NCc2ccccc2)c2cc(C)ccc2O1 (centres undefined) | inconclusive: 29.1 µM [falling, single point] |  |
| CCNC(=O)/C(C#N)=C/c1c(N(Cc2ccccc2)Cc2ccccc2)nc2ccccn2c1=O | inconclusive: 29.1 µM [falling, single point] |  |
| O=C(O)c1ccccc1C(=O)c1cccc2ccccc12 | inconclusive: 5.17 µM [falling, partial curve, poor fit] |  |
| Cc1nc2c3ccccc3nc(NNC(=O)CCC(=O)NC(C)C)n2n1 | inconclusive: 0.13 µM [falling, full curve, poor fit] |  |
| N#Cc1ccc(NC(=O)COC(=O)C2Cc3ccccc3CN2C(=O)c2ccccc2)cc1 (centres undefined) | inconclusive: 20.6 µM [falling, single point] |  |
| CCOC(=O)C1=CN(Cc2cccc(F)c2)S(=O)(=O)NC1c1ccc(F)c(Cl)c1 (centres undefined) |  | inactive: -1.07% |
| Cc1ccc(-c2nc(CS(=O)CC(=O)N3CCN(c4ccc(Cl)cc4)CC3)c(C)o2)cc1 (centres undefined) | inconclusive: 9.2 µM [falling, partial curve] |  |
| NC(=O)CSc1ncc2c(n1)-c1ccccc1N(Cc1cccc(F)c1)S2(=O)=O |  | inactive: -0.871% |

Sorted by length of the SMILES (rising): three of the compounds above.

| SMILES | Potency | activity change, negative = cytotoxicity |
| --- | --- | --- |
| CCOC(=O)c1ccc(-c2nnc(-c3ccc(Cl)cc3Cl)o2)cc1 |  | inactive: -0.245% |
| COc1ccc(NC(=O)C2CCN(C(=O)N3CCOc4ccccc43)CC2)cc1 | inconclusive: 18.4 µM [falling, single point] |  |
| COc1ccc(CCNS(=O)(=O)c2ccc(N3CCCCS3(=O)=O)cc2)cc1OC |  | inactive: -2.91% |
